{"source": "PubChem BioAssay AID328", "about": "(DTP/NCI, 2004)", "tested_on": "BDF1 mice, P388 leukemia ip, median survival T/C", "experiment": "NCI In Vivo Anticancer Drug Screen. Data for tumor model P388 Leukemia (intraperitoneal) in B6D2F1 (BDF1) mice", "conditions": "T/C endpoint: median survival time, vehicle: Klucel (hydroxypropylcellulose) (HPC), higher T/C = longer survival", "procedure,_shortened": "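Reported as T/C, where T is the survival measurement in dosed animals and C the same measurement in vehicle controls.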", "key": {"[1]": {"conditions": "dose: 50.0 mg/kg/injection, schedule: Q01DX009 (ip)"}}, "note": "The list does not hold the whole screen: it gathers tests that were run many times, whatever their T/C, doses with no T/C, and many T/C values between a quarter and a half above the control. Further doses and runs are listed elsewhere. T/C is the treated group as % of the vehicle group. Some entries give survivors of the animals treated and no T/C: the source files T/C as zero there, which appears to mark a toxic dose or a test without result, not a measured value. Some doses without a T/C left all or most animals alive at the check, yet need not have been tolerated: the source hardly ever lists a survival T/C far under the control, and the zero likely stands for such cases as well. Counts of survivors are from the toxicity check (mostly the fifth day) where no day follows; animals may have died later. Schedules are NCI's codes, taken here to give the interval after Q, in days (D) or hours (H), and the number of doses after X. Some entries were tested several times; the results are listed from low to high. For survival time, this PubChem deposit counts one and a half times the control or more as active, and values a quarter to a half above the control carry no call in these data; other NCI protocols may use other cut-offs. Some T/C values carry the count of animals alive at the toxicity check (mostly the fifth day); without a count, all were alive then. Counts like (3×) give the number of equal values in this list.", "data": [{"smiles": "O=c1cnn(C2OC(CO)C(O)C2O)c(=O)[nH]1", "note": "(stereo not drawn)", "values": [{"measurement": "T/C", "setting": "dose: 25.0 mg/kg/injection, schedule: Q01DX009 (ip)", "value": "126 % of control"}, {"measurement": "T/C", "setting": "dose: 50.0 mg/kg/injection, schedule: Q01DX001 (ip), evaluated on day 30", "value": "88, 93, 95 (3×), 96 (2×), 97, 98 (3×), 99, 100 (3×), 101, 102, 103, 104 (2×), 105 (4×), 109 (2×), 110, 117, 122 % of control"}, {"measurement": "T/C", "setting": "dose: 50.0 mg/kg/injection, schedule: Q01DX001 (ip), evaluated on day 35", "value": "87 and 120 % of control"}, {"measurement": "survivor count", "setting": "dose: 50.0 mg/kg/injection, schedule: Q01DX001 (ip)", "value": "3 of 3"}, {"measurement": "T/C", "setting": "dose: 50.0 mg/kg/injection, schedule: Q01DX005 (ip), evaluated on day 30", "value": "90 [5 of 6 alive], 91, 92, 93, 100 (2×), 102, 103 (2×), 105 (3×), 106 (3×), 106 [5 of 6 alive], 108, 109 (2×), 112 (3×), 113, 116, 117, 120 (2×), 121, 122 (2×), 129 (2×), 141 % of control"}, {"measurement": "T/C", "setting": "dose: 50.0 mg/kg/injection, schedule: Q01DX005 (ip), evaluated on day 35", "value": "125 % of control"}, {"measurement": "survivor count", "setting": "dose: 50.0 mg/kg/injection, schedule: Q01DX005 (ip)", "value": "3 of 3"}, {"measurement": "T/C", "setting": "[1]", "value": "91, 93, 96, 100 (2×), 102, 103 (2×), 104 (2×), 106, 107, 108 (2×), 109 (2×), 110, 111, 113 (2×), 115 (3×), 117, 118, 119, 120, 122 (2×), 125, 128 [5 of 6 alive], 133, 136, 188 % of control"}, {"measurement": "survivor count", "setting": "[1]", "value": "6 of 6"}, {"measurement": "T/C", "setting": "dose: 50.0 mg/kg/injection, schedule: Q04DX002 (ip), evaluated on day 30", "value": "93, 94, 99 (2×), 101 (2×), 101 [5 of 6 alive], 102 [5 of 6 alive], 103 (3×), 105 (5×), 106, 107 (4×), 108, 109 (3×), 110, 111, 113 (2×), 117, 118 % of control"}, {"measurement": "T/C", "setting": "dose: 50.0 mg/kg/injection, schedule: Q04DX002 (ip), evaluated on day 35", "value": "106 % of control [5 of 6 alive]"}, {"measurement": "survivor count", "setting": "dose: 50.0 mg/kg/injection, schedule: Q04DX002 (ip)", "value": "3 of 3 and 6 of 6"}, {"measurement": "T/C", "setting": "dose: 50.0 mg/kg/injection, schedule: Q04DX003 (ip), evaluated on day 30", "value": "92, 93 (2×), 99, 101 (2×), 102, 103, 104, 105 (3×), 105 [2 of 3 alive], 106 (2×), 107 (3×), 108 (2×), 109 (2×), 110, 111 (2×), 112 (2×), 115, 116 (2×), 125, 135 % of control"}, {"measurement": "T/C", "setting": "dose: 50.0 mg/kg/injection, schedule: Q04DX003 (ip), evaluated on day 35", "value": "100 and 102 % of control"}, {"measurement": "survivor count", "setting": "dose: 50.0 mg/kg/injection, schedule: Q04DX003 (ip)", "value": "2 of 6 and 3 of 3"}, {"measurement": "T/C", "setting": "dose: 100.0 mg/kg/injection, schedule: Q01DX001 (ip), evaluated on day 30", "value": "89, 90, 92, 94, 95 (2×), 96, 98 (2×), 100 (4×), 101, 102, 103, 104 (4×), 105, 107, 109 (2×), 110, 111, 117, 121 % of control"}, {"measurement": "T/C", "setting": "dose: 100.0 mg/kg/injection, schedule: Q01DX001 (ip), evaluated on day 35", "value": "108 and 120 % of control"}, {"measurement": "survivor count", "setting": "dose: 100.0 mg/kg/injection, schedule: Q01DX001 (ip)", "value": "3 of 3 and 6 of 6"}, {"measurement": "T/C", "setting": "dose: 100.0 mg/kg/injection, schedule: Q01DX005 (ip), evaluated on day 30", "value": "92, 93, 95, 96 (2×), 100 (2×), 102, 104 (2×), 105 (4×), 107 (2×), 108, 109, 110, 112, 113 (2×), 115 (2×), 118, 119, 120, 121, 122, 122 [5 of 6 alive], 133, 134 (2×), 145 % of control"}, {"measurement": "T/C", "setting": "dose: 100.0 mg/kg/injection, schedule: Q01DX005 (ip), evaluated on day 35", "value": "125 % of control"}, {"measurement": "T/C", "setting": "dose: 100.0 mg/kg/injection, schedule: Q01DX009 (ip)", "value": "92 (2×), 93, 96, 97, 99, 100, 103, 104, 105 (3×), 106, 107 (3×), 107 [2 of 3 alive], 108 (4×), 109, 110, 112, 113 (3×), 114, 116, 117, 118, 119, 124, 127, 142 % of control"}, {"measurement": "T/C", "setting": "dose: 100.0 mg/kg/injection, schedule: Q04DX002 (ip), evaluated on day 30", "value": "90, 97, 99 (2×), 100 (2×), 103, 105 (2×), 106 (4×), 107 (3×), 108 (4×), 111 (2×), 112 (2×), 113 (3×), 115, 117, 118, 121, 128 % of control"}, {"measurement": "T/C", "setting": "dose: 100.0 mg/kg/injection, schedule: Q04DX002 (ip), evaluated on day 35", "value": "114 % of control"}, {"measurement": "survivor count", "setting": "dose: 100.0 mg/kg/injection, schedule: Q04DX002 (ip)", "value": "6 of 6"}, {"measurement": "T/C", "setting": "dose: 100.0 mg/kg/injection, schedule: Q04DX003 (ip), evaluated on day 30", "value": "87, 87 [2 of 3 alive], 88, 94, 97, 97 [5 of 6 alive], 98 (3×), 103 (2×), 104 (2×), 105, 106 (2×), 107 (2×), 108 (2×), 109 (4×), 110, 112 (3×), 114, 117, 121, 130 [5 of 6 alive], 140, 147 % of control"}, {"measurement": "T/C", "setting": "dose: 100.0 mg/kg/injection, schedule: Q04DX003 (ip), evaluated on day 35", "value": "102 and 107 % of control"}, {"measurement": "T/C", "setting": "dose: 200.0 mg/kg/injection, schedule: Q01DX001 (ip), evaluated on day 30", "value": "91 (2×), 95, 95 [5 of 6 alive], 96, 97, 98, 99, 100 (5×), 101, 102 (2×), 104, 105, 107 (3×), 108, 109 (2×), 113 (2×), 115, 120 % of control (2×)"}, {"measurement": "T/C", "setting": "dose: 200.0 mg/kg/injection, schedule: Q01DX001 (ip), evaluated on day 35", "value": "95 and 107 % of control"}]}]}
